Reference: article PMC3427169, “Interaction of Mycobacterium tuberculosis RshA and SigH Is Mediated by Salt Bridges” (PLoS ONE, 2012)
These are yes or no findings as the source states them, for the method shown. In cells and extracts the contact can be indirect. Some entries that bind do so weakly or less than the wild type.

Sequences of proteins named here, by UniProt entry; tags and fusion partners are left off. A change or cut given only in a name is not applied to a line headed by its entry.
UniProt P9WJ69, whole entry, looked up, stated change not applied: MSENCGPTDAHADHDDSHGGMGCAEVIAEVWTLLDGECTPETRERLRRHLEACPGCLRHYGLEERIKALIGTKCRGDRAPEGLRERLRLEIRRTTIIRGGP

Molecular target: GST-tagged RshA CXXC to AXXA mutant (Mycobacterium tuberculosis H37Rv) (UniProt P9WJ69)
Assay: pull-down; soluble fractions of two E. coli lysates (5.0 mg crude protein each; GST fusion and 6xHis protein) mixed in 50 mM Tris HCl pH 7.5, 100 mM NaCl, 10 mM DTT, 0.01% Triton X-100, 4°C 3 h; glutathione resin 2 h 22°C; washes up to 300 mM NaCl; Coomassie and anti-6xHis blot

Substance: Mycobacterium tuberculosis SigH, 6xHis-tagged (pET29a) (from UniProt P9WGH9 1-216)
- binding: binds
